Values from PubChem BioAssay AID1259405 (NCATS, 2018)

- Test: 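Knock-downs that lift recombinant protein yield in hamster ovary cells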 (primary screen)
- Cells: Chinese hamster CHO-K1 ovary cells with stable secreted eGFP expression
- Reagent: single siRNA against mouse genes, 0.8 pmol siRNA per well (2 µl of 400 nM stock)
- Time to read-out: 3 days
- Measured: 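Per-well intracellular GFP measured by laser scanning cytometry, plus viability from ATP luminescence, each relative to plate median of non-targeting control wells, in %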
- Reading the numbers: GFP, % of control: higher = more GFP per well, higher productivity; viability (ATP), % of control: higher = more viable cells (more ATP)
- Active means: 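a knock-down is called active if GFP reaches 120% or more of non-targeting control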
In all, the deposit lists about 50,000 reagents; below is a random part of them. About 4,000 of all reagents (8%) were called active. 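Mouse siRNA library applied to hamster cells; one well for each siRNA.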 Unmarked entries are inactive. Reagents against one gene are numbered here.

gene | siRNA no. | GFP, % of control | viability (ATP), % of control
Miox | 1 | 60.9 | 80.9
Miox | 2 | 122 (active) | 97.9
Miox | 3 | 32.2 | 47.7
Rpl41 | 1 | 87.5 | 84.6
Rpl41 | 2 | 66.9 | 76.9
Rpl41 | 3 | 51.1 | 55
Tle5 | 1 | 38.9 | 44.3
Tle5 | 2 | 34.2 | 21.6
Tle5 | 3 | 57.1 | 85.1
Ruvbl1 | 1 | 57.7 | 61.4
Ruvbl1 | 2 | 146 (active) | 84.2
Ruvbl1 | 3 | 79.5 | 79.5
Dcdc2a | 1 | 55.6 | 58.6
Dcdc2a | 2 | 91 | 67.9
Dcdc2a | 3 | 146 (active) | 72.1
Dcdc2a | 4 | 142 (active) | 93.3
Dcdc2a | 5 | 101 | 74
Dcdc2a | 6 | 102 | 92.7
Vmn2r29 | 1 | 41.9 | 42.9
Vmn2r29 | 2 | 54.6 | 47.9
Vmn2r29 | 3 | 139 (active) | 64.6
Padi6 | 1 | 87.4 | 117
Padi6 | 2 | 43.3 | 56.7
Padi6 | 3 | 65.5 | 75.1
Trhr2 | 1 | 63.7 | 65.7
Trhr2 | 2 | 75.5 | 76.2
Trhr2 | 3 | 87.8 | 86.5
Or10ag2 | 1 | 13.6 | 15.4
Or10ag2 | 2 | 66.4 | 61
Or10ag2 | 3 | 113 | 65.1
Ppip5k2 | 1 | 31 | 18.7
Ppip5k2 | 2 | 77.2 | 92
Ppip5k2 | 3 | 114 | 115
Mcm3ap | 1 | 50.8 | 55.5
Mcm3ap | 2 | 52.6 | 75.3
Mcm3ap | 3 | 106 | 46.1
Itfg1 | 1 | 96.3 | 80.7
Itfg1 | 2 | 83.5 | 44
Dclre1c | 1 | 80.1 | 90.5
Dclre1c | 2 | 123 (active) | 77.7
Dclre1c | 3 | 97.8 | 66.3
Gpr158 | 1 | 102 | 106
Gpr158 | 2 | 106 | 86.6
Cbll1 | 1 | 24 | 33.6
Cbll1 | 2 | 105 | 95.2
Cbll1 | 3 | 90.7 | 109
Teddm1b | 1 | 86.6 | 91.5
Teddm1b | 2 | 87.1 | 61.2
Teddm1b | 3 | 87 | 76.6
Kif3a | 1 | 89.5 | 81.4
Kif3a | 2 | 105 | 75.7
Arap1 | 1 | 47.7 | 83
Arap1 | 2 | 83.4 | 88.4
Arap1 | 3 | 42.9 | 47.4
Obox1 | 1 | 154 (active) | 87.2
Obox1 | 2 | 62.3 | 83.5
Obox1 | 3 | 100 | 81.1
Stard6 | 1 | 137 (active) | 93.7
Stard6 | 2 | 123 (active) | 101
Stard6 | 3 | 89.4 | 93.2
Dnajc27 | 1 | 85.3 | 91.7
Dnajc27 | 2 | 74 | 59.1
Dnajc27 | 3 | 116 | 62.5
5730522E02Rik | 1 | 84.7 | 80.2
5730522E02Rik | 2 | 73.8 | 75.8
5730522E02Rik | 3 | 121 (active) | 111
Dhrs9 | 1 | 74.1 | 78.1
Dhrs9 | 2 | 83.2 | 83.4
Dhrs9 | 3 | 88.3 | 79.9
Apoa1 | 1 | 78.5 | 85.2
Apoa1 | 2 | 110 | 93.3
Apoa1 | 3 | 129 (active) | 61.4
Hook2 | 1 | 74.1 | 101
Hook2 | 2 | 84.7 | 53.5
Rev3l | 1 | 36 | 43.9
Rev3l | 2 | 105 | 83.5
Rev3l | 3 | 51.7 | 53.9
Or4f47 | 1 | 71.3 | 81.3
Or4f47 | 2 | 66 | 60
Or4f47 | 3 | 49 | 96
Asb2 | 1 | 48 | 51.5
Asb2 | 2 | 67.7 | 74.6
Asb2 | 3 | 106 | 113
Fgf21 | 1 | 84.7 | 59.3
Fgf21 | 2 | 91.6 | 68.4
Fgf21 | 3 | 43.8 | 67.7
Slc43a2 | 1 | 128 (active) | 76.1
Slc43a2 | 2 | 107 | 81.8
Cacna2d1 | 1 | 56.9 | 81.5
Cacna2d1 | 2 | 59.9 | 27.5
Cacna2d1 | 3 | 56.6 | 56.4
Exoc3l4 | 1 | 137 (active) | 70.8
Exoc3l4 | 2 | 123 (active) | 90.1
Exoc3l4 | 3 | 161 (active) | 119
Sidt2 | 1 | 83.9 | 113
Sidt2 | 2 | 77.2 | 65.9
Sidt2 | 3 | 177 (active) | 141
Adamts15 | 1 | 114 | 110
Adamts15 | 2 | 135 (active) | 94
Adamts15 | 3 | 85.9 | 61.6
D630023F18Rik | 1 | 66.1 | 84.2
D630023F18Rik | 2 | 89.5 | 75.9
D630023F18Rik | 3 | 99.3 | 69.5
Bicd2 | 1 | 22.4 | 19.5
Bicd2 | 2 | 64.3 | 92.5
Bicd2 | 3 | 83.2 | 93.6
Myf6 | 1 | 131 (active) | 100
Myf6 | 2 | 44.5 | 43.5
Myf6 | 3 | 47.3 | 115

8 entries from above, showing only “viability (ATP), % of control”.
Cacna2d1 #1 = 81.5
Cacna2d1 #2 = 27.5
Cacna2d1 #3 = 56.4
Exoc3l4 #1 = 70.8 (active)
Exoc3l4 #2 = 90.1 (active)
Exoc3l4 #3 = 119 (active)
Sidt2 #1 = 113
Sidt2 #2 = 65.9
